# Data reported in PubChem BioAssay AID445 (National Center for Advancing Translational Sciences (NCATS), 2006).
# This is one part of the list. These are further read-outs of the screen, such as a control signal, another cell line or another target. No call is given for them. Compounds called inactive in the main read-out are mostly missing here. Words in brackets tell the shape of the fitted curve; partial curves, single points and poor fits give uncertain potencies.
# Test: IkB Signaling
# Conditions: ABC-DLBCL IkBa-CBG/CBR dual luciferase ratio (green luciferase fused to IkBa over red control in OCI-Ly3 lymphoma cells), 4 h
# Summary of the method: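 Luminescence ratio of IκBα-fused green versus native red beetle luciferase in OCI-Ly3 cells, 4 h post-doxycycline with compound; red signal alone, scaled from basal (0%) to zero light (-100%), flagged nonspecific or cytotoxic effects.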
# [1] = measured here: control luc red channel unless noted
# [2] = measured here: IkB-luc green channel
# [3] = measured here: control luc red channel
smiles,measurement,setting,value
Cc1ccc(OCC(=O)Nc2nnc(SCc3cc(=O)c4ccccc4[nH]3)s2)cc1,AC50,[1],"25.1 µM [falling, partial curve]"
Cc1ccc(CNC(=O)c2ccc(Cn3nc(C)c(Cl)c3C)o2)cc1,AC50,[1],"12.6 µM [falling, partial curve]"
CCOc1ccccc1C(=O)Nc1ccc2nc(N(CC)CC)cc(C)c2c1,AC50,[1],"7.94 µM [falling, single point]"
CC(CCc1ccccc1)NC(=O)C1CCCN(C(=O)c2cc3sccc3n2C)C1 (stereo unspecified),AC50,[1],"12.6 µM [falling, partial curve]"
Cc1cc(N2CCCCC2)nc2ccc(NC(=O)c3cccc(Cl)c3)cc12,AC50,[1],"31.6 µM [falling, single point]"
CCOC(=O)C1CCN(c2ncnc3c2oc2ccccc23)CC1,AC50,[1],"25.1 µM [falling, single point]"
Cc1cc2n(n1)C(c1cc(C(C)(C)C)c(O)cc1O)Nc1ccccc1-2 (stereo unspecified),AC50,[1],"31.6 µM [falling, single point]"
CSc1cccc(NC(=O)CN2C(=O)COc3ccc(Cl)cc32)c1,AC50,[1],"31.6 µM [falling, partial curve]"
Cc1ccc(-c2nc3sc(CCNC(=O)c4ccc(Br)o4)c(C)n3n2)cc1,AC50,[1],"25.1 µM [falling, partial curve]"
COc1ccc(NC(=O)COc2ccc(-c3nn(C)c(=O)c4ccccc34)cc2)cc1,AC50,[1],"0.794 µM [rising, full curve]"
COc1ccccc1-c1nnc(SCC(=O)c2ccc(Cl)cc2)n1-c1ccccc1,AC50,[1],"10 µM [falling, partial curve]"
CCCCc1ccc(NC(=O)c2cc3c(=O)n4ccccc4nc3s2)cc1,AC50,[1],"25.1 µM [rising, partial curve, poor fit]"
Cc1c(C)c2ccc(OCc3ccc(C(=O)O)o3)c(C)c2oc1=O,AC50,[1],"1.26 µM [falling, full curve]"
CCOc1ccc(NC(=O)CSc2nc3c(oc4ccccc43)c(=O)n2-c2ccccc2C)cc1,AC50,[1],"31.6 µM [falling, single point]"
COC(=O)c1ccc2c(=O)[nH]c(CN3c4ccccc4CC3C)nc2c1 (stereo unspecified),AC50,[1],"25.1 µM [falling, single point]"
CCn1ccc2cc(S(=O)(=O)N3CCCN(C(=O)Nc4cccc(Cl)c4)CC3)ccc21,AC50,[1],"39.8 µM [rising, single point]"
COc1ccc(N(C)C(=O)c2cn(C3CCCCC3)c(=O)c3c2c2ccccc2n3C)cc1,AC50,[1],"15.8 µM [falling, partial curve]"
O=C(NCCc1csc2nc(-c3ccccc3F)nn12)c1ccco1,AC50,[1],"5.01 µM [falling, single point]"
CN1C(C(=O)c2ccccc2)=C(OC(=O)c2ccc(Br)cc2)c2ccccc2S1(=O)=O,AC50,[1],"25.1 µM [falling, partial curve]"
Cc1oc2c(c(C)cc3oc(=O)c(CC(=O)NCCc4ccccc4)c(C)c32)c1C,AC50,[1],"3.16 µM [rising, partial curve, poor fit]"
COc1ccccc1NC(=O)c1c(NCc2ccc(OC)c(OC)c2OC)sc2c1CCCC2,AC50,[1],"25.1 µM [falling, single point]"
CCOC(=O)c1ccc(Nc2nc3ccccc3nc2NS(=O)(=O)c2ccc(Cl)cc2)cc1,AC50,[1],"1 µM [falling, full curve]"
Cc1ccc(-c2c(CN3CCN(c4cccc(C(F)(F)F)c4)CC3)csc2C)cc1,AC50,[1],"1.26 µM [falling, partial curve]"
Cc1nc2c(C(=O)NCc3ccccc3)c[nH]n2c(=O)c1Cc1ccccc1Cl,AC50,[1],"12.6 µM [falling, partial curve]"
Cc1sc2ncn(CC(=O)N(C)c3ccc(Br)cc3)c(=O)c2c1S(=O)(=O)N1CCC(C)CC1,AC50,[1],"10 µM [falling, partial curve]"
Cc1cccc(NC(=O)c2c(C)oc3ncn(CC(C)C)c(=O)c23)n1,AC50,[1],"0.398 µM [rising, full curve]"
COc1cccc(NC(=O)Nc2cccc(-c3cn4cccnc4n3)c2)c1,AC50,[1],"20 µM [falling, partial curve]"
COc1ccc(NC(=O)c2noc3c2CCCC3)cc1Cl,AC50,[1],"39.8 µM [falling, single point]"
CCOc1ccc(-c2nnc(Nc3ccc(S(N)(=O)=O)cc3)c3ccccc23)cc1,AC50,[2],"31.6 µM [rising, single point]"
same,AC50,[3],"0.501 µM [rising, partial curve, poor fit]"
CC(C)(C)c1ccc(OCC(=O)N2CCC(c3nc4ccccc4s3)CC2)cc1,AC50,[1],"5.01 µM [falling, full curve]"
Cc1nc2cccnc2n1-c1cccc(C(=O)N2CCN(c3ccc(Cl)cc3)CC2)c1,AC50,[1],"15.8 µM [falling, partial curve]"
COc1cc(CN2CCN(c3cccc(C)c3C)CC2)cc(Br)c1O,AC50,[1],"12.6 µM [falling, partial curve]"
CCN(CCCNC(=O)Cn1ncc2c([nH]c3ccc(C)cc32)c1=O)c1cccc(C)c1,AC50,[1],"1 µM [falling, full curve, poor fit]"
CCC(CC)c1nnc(NS(=O)(=O)Cc2ccccc2)s1,AC50,[1],"2 µM [falling, full curve]"
CC1CCCCN1C(=O)CSCC(=O)Nc1nc(-c2cccs2)cs1 (stereo unspecified),AC50,[1],"10 µM [falling, partial curve]"
Cc1cccc(CCNC(=O)c2sc3nc4n(c(=O)c3c2C)CCCC4)c1,AC50,[1],"25.1 µM [falling, partial curve]"
Cc1ccc(S(=O)(=O)c2nc(-c3ccccc3)oc2NCc2cccnc2)cc1,AC50,[1],"25.1 µM [falling, partial curve]"
O=C1CSC2(C(=O)N(Cc3ccccc3F)c3ccccc32)N1c1ccc(F)cc1 (stereo unspecified),AC50,[1],"15.8 µM [falling, partial curve]"
CCCC(=O)c1cc(F)c(N2CCOCC2)cc1C,AC50,[2],"6.31 µM [rising, single point]"
same,AC50,[3],"6.31 µM [rising, single point]"
O=C(NCCc1ccccc1)c1ccc(CS(=O)(=O)c2ccc(Br)cc2)o1,AC50,[1],"25.1 µM [falling, single point]"
Cc1cc2nn(-c3ccccc3)nc2cc1NC(=O)c1cccc2c(Cl)cccc12,AC50,[1],"0.251 µM [rising, full curve]"
COc1ccc(CCC(=O)N2CCc3c([nH]c4ccccc34)C2c2ccc(F)cc2)cc1 (stereo unspecified),AC50,[1],"7.94 µM [falling, full curve]"
CCSc1nnc2n(-c3cccc(C)c3)c(=O)c3c4c(sc3n12)CCCC4,AC50,[1],"25.1 µM [falling, single point]"
COc1ccc(-c2cc(C(=O)Nc3cccnc3Cl)no2)cc1OC,AC50,[1],"2.51 µM [rising, full curve]"
O=C(NCCc1ccc2c(c1)OCCO2)c1cc2ccccc2o1,AC50,[1],"12.6 µM [falling, partial curve]"
Cc1ccccc1C(=O)OCc1cc(=O)n2nc(-c3cccs3)sc2n1,AC50,[1],"1.58 µM [rising, partial curve]"
Clc1ccc(-n2nnnc2Sc2ncnc3sccc23)cc1,AC50,[1],"10 µM [falling, partial curve]"
CN(C)CCN(Cc1ccco1)C(=O)c1oc2ccccc2c1NC(=O)c1ccccc1,AC50,[1],"31.6 µM [falling, single point]"
Cc1ccc(OCC(=O)N(Cc2ccco2)Cc2ccc(C)o2)cc1,AC50,[1],"39.8 µM [falling, single point]"
Cc1ccc2cc(C#N)c(NCc3ccco3)nc2c1,AC50,[1],"15.8 µM [rising, partial curve] [measured here: IkB-luc green channel]"
CCc1ccccc1N(CC)C(=O)CCc1nc(-c2ccc(C)cc2)no1,AC50,[1],"20 µM [falling, partial curve]"
Cc1ccc(C(=O)C2CCN(CC(=O)NC3CCCCC3)CC2)cc1,AC50,[1],"25.1 µM [falling, partial curve]"
COc1ccc(NC(=O)c2cc(-c3ccc(OC)c(OC)c3)on2)cc1OC,AC50,[1],"6.31 µM [falling, partial curve]"
NCCCCCCCCCCNS(=O)(=O)c1cccc2c(Cl)cccc12,AC50,[1],"31.6 µM [falling, partial curve]"
Cc1cc(S(=O)(=O)Nc2ccc(-c3ccc(N4CCCCCC4)nn3)cc2)c(C)cc1Cl,AC50,[1],"6.31 µM [falling, full curve]"
CCc1sc(Nc2cccc(C)c2C)nc1-c1cc2cccc(OC)c2oc1=O,AC50,[1],"0.251 µM [falling, full curve]"
Cc1ccc2c(=O)c(C(=O)c3cccc(Cl)c3)cn(CC(=O)Nc3ccc4c(c3)OCCO4)c2n1,AC50,[1],"12.6 µM [falling, partial curve]"
COc1ccc(-n2nnnc2S(=O)(=O)CC(=O)N2CCCCC2)cc1,AC50,[2],"3.16 µM [falling, full curve]"
same,AC50,[3],"1 µM [falling, full curve]"
CC(C)OC(=O)CSc1ncnc2c1cnn2-c1ccccc1,AC50,[1],"39.8 µM [falling, single point]"
COc1ccc(CCCc2nnc(SCC(=O)Nc3ccc(OC)cc3)o2)cc1,AC50,[1],"25.1 µM [falling, single point]"
CN1C(=O)Cc2cc(S(=O)(=O)CCC(=O)Nc3ccc(F)c(Cl)c3)ccc21,AC50,[1],"39.8 µM [falling, single point]"
CCc1ccccc1Nc1cc(C(=O)NC(C)c2ccccc2)c2ccccc2n1 (stereo unspecified),AC50,[1],"5.01 µM [falling, partial curve]"
CCCc1nn2c(=O)cc(COC(=O)c3ccccc3NC(=O)c3ccc(Cl)cc3)nc2s1,AC50,[1],"0.501 µM [falling, partial curve]"

# Rewritten tab-delimited: entries from further up.
smiles	measurement	setting	value
COc1ccc(-n2nnnc2S(=O)(=O)CC(=O)N2CCCCC2)cc1	AC50	[2]	3.16 µM [falling, full curve]
same	AC50	[3]	1 µM [falling, full curve]
CC(C)OC(=O)CSc1ncnc2c1cnn2-c1ccccc1	AC50	[1]	39.8 µM [falling, single point]
